From PubChem BioAssay AID504834 (National Center for Advancing Translational Sciences (NCATS), 2011)
In all, about 320,000 compounds went through this assay and about 22,000 (6.9%) were called active. The inconclusive results got no clear call from the source; some entries with a clear call stand among them for comparison. Calls come from the whole dose curve; as a rule, active = well fitted inhibition curve with a large enough effect; inconclusive = small, poorly fitted or top-dose-only effect, or another doubt; inactive = no such curve, though single readings can be large or run the other way. Potencies of inconclusive entries are doubtful fits and often do not repeat.

Assay: Primary qHTS for delayed death inhibitors of the malarial parasite plastid, 96 hour incubation
Conditions: P. falciparum luciferase reporter growth; series mostly up to 28.7 µM
How it was run: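 Plates of compound plus infected erythrocytes (2% hematocrit, 0.05% parasitemia final) incubate 96 hours, 37 C, 5% CO2. Detection reagent added; reduced luminescence from the parasites' luciferase reporter flags inhibition.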
Potency is the fitted concentration of half-maximal effect.

| Compound | Potency |
| --- | --- |
| OCCC1CN(Cc2cccn2-c2ncccn2)CCN1C1CCCC1 (configuration not stated) | inconclusive: 20.8 µM [inhibitor, partial curve, poor fit] |
| NNC(=O)CNC(c1ccccc1)c1cc(Br)ccc1NC(=O)c1ccc(Br)cc1 (configuration not stated) | inactive |
| O=C(NCC(=O)N1CCCC(C(F)(F)F)C1)c1ccc2ccccc2c1 (configuration not stated) | inactive |
| CCCN(CCC)C(=O)CC(c1ccccc1)c1ccco1 (configuration not stated) | inconclusive: 10.4 µM [inhibitor, single point] |
| CC(=O)NCC(=O)OCC(=O)c1ccc(Br)cc1 | inactive |
| COc1ccc(C2/C=C\CN(S(=O)(=O)/C=C/c3ccccc3)[C@H](Cc3ccccc3)C(=O)N2Cc2ccc(F)cc2)cc1 (some centres not stated) | inconclusive: 11.7 µM [inhibitor, single point] |
| COc1ccc(OC)c(NC(=O)C2CC(/C=C/c3ccccc3)=NO2)c1 (configuration not stated) | inconclusive: 18.5 µM [inhibitor, single point] |
| CCOc1ccc(N2C(=O)CC(N(Cc3ccco3)C(C)=O)C2=O)cc1 (configuration not stated) | inconclusive: 3.7 µM [inhibitor, partial curve] |
| O=C(Nc1ccccc1)c1ccn[nH]1 | inconclusive: 9.28 µM [inhibitor, partial curve, poor fit] |
| COc1ccc(CC(=O)OCC(=O)c2ccc(OC)c(OC)c2)cc1 | inactive |
| COc1cc(CNc2nnnn2C)cc(OC)c1OC | inconclusive: 5.22 µM [inhibitor, partial curve, poor fit] |
| COc1ccccc1NC(=O)c1sc2nc3n(c(=O)c2c1C)CCC3 | inconclusive: 11.7 µM [inhibitor, single point] |
| CCOc1ccccc1N(CC(=O)Nc1ccc(OC)cc1)S(=O)(=O)c1ccccc1 | inactive |
| CCSc1ccccc1C(=O)N1CCC2(CC1)CC(=O)c1ccccc1O2 | inconclusive: 10.4 µM [inhibitor, single point] |
| O=C(N/N=C1\CCSC1)c1cc(Cl)ccc1O | inconclusive: 9.28 µM [inhibitor, single point] |
| COC(=O)CN(c1cc([N+](=O)[O-])ccc1OC)S(C)(=O)=O | active: 14.7 µM |
| Cc1ccc(NC(=O)c2ccc3ccccc3n2)cc1S(=O)(=O)N(C)C | inactive |
| O=C(CSc1ncn[nH]1)N1N=C2/C(=C/c3ccccc3)CCCC2C1c1ccccc1 (configuration not stated) | active: 7.38 µM |
| Cc1ccccc1-n1c(SCc2csc(Nc3ccccc3)n2)nnc1-c1cccnc1 | active: 9.28 µM |
| COc1ccc2oc(=O)c(C(=O)Nc3cccc(C(C)=O)c3)cc2c1 | inactive |
| CC1(C)CNC(=O)C=C(c2ccccc2)C1 | inconclusive: 18.5 µM [inhibitor, single point] |
| CCc1c(C(=O)Nc2ccncc2)csc1C | inconclusive: 20.8 µM [inhibitor, single point] |
| CC1CN(CC(O)COC(c2ccc(Cl)cc2)c2ccc(Cl)cc2)CC(C)O1 (configuration not stated) | inconclusive: 2.62 µM [inhibitor, partial curve, poor fit] |
| c1ccc(Nc2nc(N3CCOCC3)nc(N3CCOCC3)n2)cc1 | inactive |

| Compound | Potency |
| --- | --- |
| O=C(NCCCN1CCCC1=O)c1c(O)nc2ccccn2c1=O | inactive |
| CCc1nc2ccc(C(=O)N3CCN(c4cccc(OC)c4)CC3)cc2nc1CC | inconclusive: 2.62 µM [inhibitor, full curve] |
| COC(=O)C1=Cc2cc(OC)cc([N+](=O)[O-])c2OC1N1CCOCC1 (configuration not stated) | inactive |
| Cc1ccccc1NC(=O)c1sc2nc3c(c(-c4ccco4)c2c1N)CCC3 | inconclusive: 4.65 µM [inhibitor, partial curve, poor fit] |
| CCC/C=N/NC(=O)c1cc(-c2ccccc2)nc2ccccc12 | inconclusive: 10.4 µM [inhibitor, single point] |
| Cc1ccsc1C1C(C#N)=C(N)OC2=C1C(=O)CCC2 (configuration not stated) | inconclusive: 10.4 µM [inhibitor, partial curve] |
| COc1cc(OC)c(C(=O)N2CCCC2)cc1OC | inconclusive: 16.5 µM [inhibitor, single point] |
| CCOC(=O)C1=C(C)NC(=O)NC1c1cccnc1 (configuration not stated) | inconclusive: 0.0657 µM [inhibitor, full curve, poor fit] |
| COc1ccc(OC)c(NC(=O)CCCSc2ccccc2)c1 | inactive |
| COc1cccc(C(=O)NCC2(c3ccccc3)CCCC2)c1OC | inconclusive: 11.7 µM [inhibitor, single point] |
| Cc1cc(NC(=O)COC(=O)CCS(=O)(=O)c2cc(Cl)ccc2Cl)no1 | inactive |
| CCOc1c2ccc(C(=O)NCc3ccc4c(c3)OCO4)cc2nn1CCOC | inconclusive: 0.415 µM [inhibitor, full curve, poor fit] |
| Cc1ccc(S(=O)(=O)c2c(N)n(CCCN(C)C)c3nc4ccccc4nc23)cc1 | inconclusive: 14.7 µM [inhibitor, single point] |
| COc1ccc2c(c1OC)C(=O)N(c1ccc(O)cc1)C2=O | inactive |
| Cc1cc2c(c(=O)n1CCN(C)C)C(c1ccc(Cl)cc1)C(C#N)=C(N)O2 (configuration not stated) | inconclusive: 14.7 µM [inhibitor, partial curve, poor fit] |
| O=C(CN1CCN(c2ccccn2)CC1)Nc1ccccc1C(=O)Nc1ccccc1 | inconclusive: 10.4 µM [inhibitor, single point] |
| O=C(Cn1ncc2c(=O)oc3ccccc3c21)N1CCC(N2CCCCC2)CC1 | active: 11.7 µM |
| CCOc1ccc(CC(=O)NNC(=O)/C=C/C(=O)O)cc1 | inactive |
| Cc1ccccc1-c1noc(CCC(=O)NC2CCCCC2)n1 | active: 10.4 µM |
| CCC(=O)N1CCc2cc(S(=O)(=O)NC(C(=O)NC3CCCc4ccccc43)C(C)C)ccc21 (configuration not stated) | inactive |
| CCCNC(=O)/C(C#N)=C1\N=C(NC(=O)c2cccs2)c2ccccc21 | inconclusive: 14.7 µM [inhibitor, partial curve, poor fit] |
| Cn1c(SCc2cccc(F)c2)nnc1-c1ccncc1 | inconclusive: 18.5 µM [inhibitor, single point] |
| CCN1C(=NCCc2cccs2)N[C@@H](CCc2ccccc2)[C@H](C(=O)NCCc2cccs2)[C@H]1C | inactive |

Three structures already listed, sorted by number of heavy atoms, high to low.

| Compound | Potency |
| --- | --- |
| COc1ccc(OC)c(NC(=O)C2CC(/C=C/c3ccccc3)=NO2)c1 (configuration not stated) | inconclusive: 18.5 µM [inhibitor, single point] |
| COc1ccc(CC(=O)OCC(=O)c2ccc(OC)c(OC)c2)cc1 | inactive |
| COc1cc(OC)c(C(=O)N2CCCC2)cc1OC | inconclusive: 16.5 µM [inhibitor, single point] |
